11 substances from publication PMC7498349 can be followed below.

Sequences of proteins named here, by UniProt entry; tags and fusion partners are left off. A change or cut given only in a name is not applied to a line headed by its entry. A line that says so, or that is headed by a name, gives the form on record, which may keep a tag or linker.
UniProt Q8N6T7: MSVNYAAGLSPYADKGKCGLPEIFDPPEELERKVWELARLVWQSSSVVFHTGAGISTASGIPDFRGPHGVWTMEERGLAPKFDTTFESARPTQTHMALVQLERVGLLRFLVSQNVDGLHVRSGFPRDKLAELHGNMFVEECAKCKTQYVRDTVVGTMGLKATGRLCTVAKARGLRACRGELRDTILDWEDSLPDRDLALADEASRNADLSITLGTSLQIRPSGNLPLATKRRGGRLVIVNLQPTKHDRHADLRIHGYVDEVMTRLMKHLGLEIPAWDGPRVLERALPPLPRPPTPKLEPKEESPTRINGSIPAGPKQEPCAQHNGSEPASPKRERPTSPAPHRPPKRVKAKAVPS
UniProt Q92466: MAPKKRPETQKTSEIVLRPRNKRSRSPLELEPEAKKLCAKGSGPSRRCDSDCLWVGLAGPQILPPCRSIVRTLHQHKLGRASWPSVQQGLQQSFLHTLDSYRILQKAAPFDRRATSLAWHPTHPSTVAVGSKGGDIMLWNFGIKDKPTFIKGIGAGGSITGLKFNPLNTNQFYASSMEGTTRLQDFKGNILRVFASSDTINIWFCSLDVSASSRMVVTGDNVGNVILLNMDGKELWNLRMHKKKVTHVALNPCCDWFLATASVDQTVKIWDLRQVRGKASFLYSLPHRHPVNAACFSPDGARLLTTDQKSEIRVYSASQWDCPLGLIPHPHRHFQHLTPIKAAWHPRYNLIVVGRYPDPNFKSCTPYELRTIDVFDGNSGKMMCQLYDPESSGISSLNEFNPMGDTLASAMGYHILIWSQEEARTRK
DDB2-2KR-GFP (human (cDNA derived from 293 cells)) (Q92466, form named): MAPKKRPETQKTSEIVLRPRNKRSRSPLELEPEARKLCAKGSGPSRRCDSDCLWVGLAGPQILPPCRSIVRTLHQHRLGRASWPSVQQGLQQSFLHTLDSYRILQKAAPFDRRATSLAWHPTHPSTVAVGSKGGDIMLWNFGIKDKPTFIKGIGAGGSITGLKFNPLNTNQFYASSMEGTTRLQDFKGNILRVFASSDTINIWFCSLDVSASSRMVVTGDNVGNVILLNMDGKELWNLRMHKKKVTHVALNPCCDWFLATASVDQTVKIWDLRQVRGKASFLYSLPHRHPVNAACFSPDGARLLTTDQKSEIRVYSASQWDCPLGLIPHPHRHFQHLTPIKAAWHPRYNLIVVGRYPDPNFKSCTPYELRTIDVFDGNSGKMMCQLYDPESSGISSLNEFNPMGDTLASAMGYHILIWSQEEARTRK

These are yes or no findings as the source states them, for the method shown. Binding seen in cells or lysates may run through a third protein. Some entries that bind do so weakly or less than the wild type.

One test deals with full-length SIRT6-Flag (UniProt Q8N6T7). Kind of test: co-IP; lysates of transfected HEK293 cells (20 mM HEPES pH 8.0, 0.2 mM EDTA, 5% glycerol, 150 mM NaCl, 1% NP-40; sonicated); IP with anti-Flag, anti-HA, anti-GFP or GFP-Trap, western blot; in some panels with or without UVC (20 J/m^2), SIRT6 depletion or ethidium bromide pretreatment.
Test [1] concerns the target full-length DDB2-GFP (human (cDNA derived from 293 cells)) (UniProt Q92466). Described as above.
Test [2] concerns the target HA-tagged DDB2 (human (cDNA derived from 293 cells)) (UniProt Q92466). Described as above.
The next test deals with SIRT6 H133Y (UniProt Q8N6T7). Kind of test: co-IP; with or without UV irradiation; details only in Supplementary Figures S10 and S14.
Another test addresses SIRT6 R65A (UniProt Q8N6T7). Described as above.
Test [3] has as its target DDB2-2KR-GFP (human (cDNA derived from 293 cells)) (UniProt Q92466). Kind of test: co-IP; lysates of transfected HEK293 cells (20 mM HEPES pH 8.0, 0.2 mM EDTA, 5% glycerol, 150 mM NaCl, 1% NP-40; sonicated); IP with anti-Flag, anti-HA, anti-GFP or GFP-Trap, western blot; in some panels with or without UVC (20 J/m^2), SIRT6 depletion or ethidium bromide pretreatment.
For test [4], the target named is DDB2-Flag (human (cDNA derived from 293 cells)) (UniProt Q92466). The test is described as above.
Test [5] addresses DDB2 (in the melanoma cell line A875) (UniProt Q92466). As to the kind of experiment: co-IP; melanoma cell line A875; details only in Supplementary Figure S7A, B.

As to “full-length DDB2-GFP (from UniProt Q92466 1-427)”, the binding entry in the test with full-length SIRT6-Flag is on record as “binds”.
In the case of “full-length SIRT6-Flag (from UniProt Q8N6T7 1-355) (enzyme)”, the binding result in test [1] was “binds”.
With “SIRT6 (from UniProt Q8N6T7 1-355) (enzyme)”, in test [2], the binding result is “binds”.
Consider “SIRT6 ΔC-Flag (1-271 aa) (from UniProt Q8N6T7 1-271) (domain or fragment)”, for which the binding entry in test [1] is reported as “binds”.
As to “deacetylase core fragment SIRT6 ΔNΔC-Flag (49–271 aa) (from UniProt Q8N6T7 49-271) (domain or fragment)”, in test [1], the binding result was “binds”.
As for “DDB2 (construct not stated; Supplementary Figures S9C, S10, S14) (from UniProt Q92466 1-427)”, the binding entry in the test with SIRT6 H133Y and with SIRT6 R65A was “binds” each time.
As to “p97 (from UniProt P55072 1-806) (enzyme)”, the binding result in test [3], in test [4] and in test [1] was “binds” each time.
On to DDB2 (from UniProt Q92466 1-427), for which the binding entry in the test with full-length SIRT6-Flag was “binds”.
On the same count and under the same terms, the value for “DDB2 fragment 1-GFP (1–100 aa) (from UniProt Q92466 1-100) (domain or fragment)” was “binds”.
In the case of “SIRT6 (in the melanoma cell line A875) (from UniProt Q8N6T7 1-355) (enzyme)”, in test [5], the binding result is “binds”.
With “SIRT6 ΔN-Flag (49–355 aa) (from UniProt Q8N6T7 49-355) (domain or fragment)”, in test [1], the binding entry is reported as “binds”.
